# The whole screen tested about 260,000 compounds, of which about 1,500 (0.58%) were called active. This list was built around the results that the source calls inconclusive (neither active nor inactive); the mix of calls is not that of the screen.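 How the source made its calls: active means inhibition above a set limit at one or more doses, reproduced on every date tested; inconclusive means results disagree between test dates, or hit never tested in dose response; inactive means the rest.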
# By UniProt entry, the sequences of proteins in these tests, tags left out. Where a name states a change or a piece, a line headed by the entry shows the natural chain unless it says otherwise.
# UniProt P69720: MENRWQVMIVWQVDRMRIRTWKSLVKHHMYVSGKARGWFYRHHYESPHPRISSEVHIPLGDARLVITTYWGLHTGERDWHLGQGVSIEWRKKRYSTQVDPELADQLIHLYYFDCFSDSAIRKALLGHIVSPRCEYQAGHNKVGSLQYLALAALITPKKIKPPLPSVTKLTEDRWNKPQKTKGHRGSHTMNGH
# UniProt P69721: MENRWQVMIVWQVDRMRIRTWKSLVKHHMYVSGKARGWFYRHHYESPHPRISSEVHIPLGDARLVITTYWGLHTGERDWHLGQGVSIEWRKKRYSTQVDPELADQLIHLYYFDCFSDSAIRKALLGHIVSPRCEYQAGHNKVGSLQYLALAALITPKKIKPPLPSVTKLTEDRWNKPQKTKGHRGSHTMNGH
# UniProt P69722: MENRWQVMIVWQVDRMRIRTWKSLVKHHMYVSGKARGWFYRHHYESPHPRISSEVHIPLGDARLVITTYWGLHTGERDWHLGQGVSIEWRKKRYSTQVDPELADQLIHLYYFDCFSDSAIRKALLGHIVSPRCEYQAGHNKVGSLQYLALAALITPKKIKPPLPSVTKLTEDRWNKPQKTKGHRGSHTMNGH
# UniProt P69723: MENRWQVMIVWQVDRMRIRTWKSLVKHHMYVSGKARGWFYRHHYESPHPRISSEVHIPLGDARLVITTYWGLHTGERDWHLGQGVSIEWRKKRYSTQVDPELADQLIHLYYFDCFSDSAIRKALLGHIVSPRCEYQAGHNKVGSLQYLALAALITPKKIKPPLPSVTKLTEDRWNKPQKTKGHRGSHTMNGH
# UniProt Q9HC16: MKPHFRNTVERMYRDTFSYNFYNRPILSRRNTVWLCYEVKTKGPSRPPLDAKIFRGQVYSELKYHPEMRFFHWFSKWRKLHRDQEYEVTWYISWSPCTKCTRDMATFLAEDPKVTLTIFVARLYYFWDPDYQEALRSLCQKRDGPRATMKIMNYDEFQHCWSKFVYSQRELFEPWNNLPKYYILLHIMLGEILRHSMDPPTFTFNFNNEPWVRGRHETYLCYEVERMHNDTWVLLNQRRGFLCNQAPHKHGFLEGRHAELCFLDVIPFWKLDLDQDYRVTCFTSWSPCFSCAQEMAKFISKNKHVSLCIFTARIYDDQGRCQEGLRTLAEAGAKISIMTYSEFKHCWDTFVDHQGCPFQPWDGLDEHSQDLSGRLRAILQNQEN
# Target: Virion infectivity factor (Human immunodeficiency virus type 1 group M subtype B (isolate BH10)) + Virion infectivity factor (Human immunodeficiency virus type 1 group M subtype B (isolate BRU/LAI)) + Virion infectivity factor (Human immunodeficiency virus type 1 group M subtype B (isolate PCV12)) + Virion infectivity factor (Human immunodeficiency virus type 1 group M subtype B (isolate HXB2)) + DNA dC->dU-editing enzyme APOBEC-3G (Homo sapiens) (UniProt P69720+P69721+P69722+P69723+Q9HC16)
# Assay: inhibitors of Vif binding to APOBEC3G peptide, primary screen, biochemical, TR-FRET, GST-Vif 1-94, biotin-A3G peptide, dose response retest (AID 1117319);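 further: Vif residues 1-94 fused to GST binding biotinylated APOBEC3G peptide 110-148; 0% = full assay without inhibitor and 100% = GST in place of GST-Vif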
# Details: stronger effect = higher value
row,SMILES,inhibition
1,O=C(C[n+]1ccc(-c2nnc3n2CCC3)cc1)c1ccc(Cl)c(Cl)c1,inconclusive: 33.5%
2,N#CC(C#N)=c1ccc2c(c1)N1C3=C(CCCC3)CC3CCCCC31N=2 (stereo unspecified),inactive: 20.5%
3,CSC1=N/C(=C\c2ccc(Br)o2)C(=O)S1,inconclusive: 54%
4,CC(=O)C1=C(c2ccccc2)NC(=O)NC1c1ccc(O)c(O)c1 (stereo unspecified),inconclusive: 49.7%
5,CC1=C(C(=O)N2CCOCC2)C(c2cccs2)NC(=O)N1 (stereo unspecified),inconclusive: 41.2%
6,Cc1cc(SCc2cc(=O)n3ccsc3n2)nc2ccccc12,inconclusive: 49.9%
7,COc1cc2c(cc1NC(=O)c1ccco1)CCCC2,inconclusive: 40.9%
8,CCN(C(=O)c1cc2ccccc2o1)C12CC3CC(CC(C3)C1)C2,inactive: -6.34%
9,CC1CC2(CC(C)(C(=O)CSc3n[nH]c(-c4ccccc4Cl)n3)OC2=O)C(=O)O1 (stereo unspecified),inconclusive: 55.3%
10,COC(=O)c1sc2nc(C)c([N+](=O)[O-])c(C)c2c1N,inactive: 6.2%
11,NC(=O)COC(=O)c1cc([N+](=O)[O-])ccc1NCCO,inconclusive: 50.7%
12,Cc1noc(C)c1C(=O)N1CCN(Cc2ccccc2)CC1,inconclusive: 39.3%
13,CCOc1cc(N2CCOCC2)c(OCC)cc1NC(=O)CSc1nc(N)cc(=O)[nH]1,inactive: -6.18%
14,O=C(NCCN1CCOCC1)c1ccc2ccccc2c1,inconclusive: 54.4%
15,O=C(O)c1cc(-c2ccco2)nc2ccccc12,inconclusive: 33.7%
16,c1ccc(Nc2c(-c3ccco3)nc3ccccn23)cc1,inactive: -2.7%
17,CC(=O)N1CCN(C(=O)c2cccc(S(=O)(=O)N3CCOCC3)c2)CC1,inconclusive: 33.5%
18,CCCn1c(Cc2ccccc2)n[nH]c1=S,inconclusive: 33.8%
19,Cc1ccc(C(=O)O/N=C(\N)c2ccccn2)cc1C,inconclusive: 35%
20,COc1ccc(OC)c(NC(=O)CSc2nncc3ccc(OC)c(OC)c23)c1,inconclusive: 52.1%
21,COc1ccc(-c2cc(C(F)(F)F)n3nc(C(=O)NCCCN4CCOCC4)cc3n2)cc1,inconclusive: 45.1%
22,CN(C)c1ccc(/C=N/NC(=O)c2ccn(C)n2)cc1,inconclusive: 33%
23,CCc1ccc(S(=O)(=O)N2c3ccc(C)cc3C3CN(C)CCC32)cc1 (stereo unspecified),inconclusive: 43.6%

row,SMILES,inhibition
1,COc1ccc(-c2[nH]ncc2CN(CC2CCC(=O)N2)C(C)C)cc1F (stereo unspecified),inconclusive: 47.2%
2,Cc1nn(CCc2n[nH]c(=S)n2-c2ccc(F)cc2)c(C)c1[N+](=O)[O-],inconclusive: 62.7%
3,CCS(=O)(=O)NCCc1ccc(OC)c(OC)c1,inconclusive: 59.4%
4,CC(=O)C(Sc1nc(NC(C)(C)C)nc(N(C)C)n1)C(C)=O,inactive: -1.75%
5,CC(C)c1ccccc1OCC(=O)NCC(c1cccs1)N1CCOCC1 (stereo unspecified),inconclusive: 48.6%
6,Cc1c(C#N)c2ncn(CC#N)c(=O)c2n1-c1ccccc1,inconclusive: 34.4%
7,COc1ccc(CCN(C)C(=O)CSc2nnnn2C)cc1OC,inconclusive: 34.5%
8,COc1cccc(NC(=O)NC2CCN(Cc3nnnn3Cc3ccc(F)cc3)CC2)c1,inconclusive: 34.8%
9,COc1cccc(CN2CCN(C(=O)Nc3ccc([N+](=O)[O-])cc3)CC2)c1,inconclusive: 33.1%
10,CC1CCN(S(=O)(=O)N2CCC(C(=O)NCc3cccnc3)CC2)CC1,inconclusive: 35.8%
11,O=[N+]([O-])c1ccc2c(c1)nc1n2CCN(c2ccccc2)C1,inconclusive: 33.3%
12,Cc1ccc(C(=O)N(c2ccccc2)C2CC(C)N(C(=O)c3ccco3)c3ccccc32)cc1 (stereo unspecified),inconclusive: 35%
13,Cc1cccc(NC(=O)c2ccc(S(=O)(=O)N(C)C)cc2)c1,inconclusive: 38.1%
14,COc1cc(/C=N/NC(=O)c2ccc(-n3cccc3)cc2)ccc1O,inconclusive: 35.2%
15,CC(=O)c1ccc(NC(=O)N2CCCC(C(=O)c3ccc4c(c3)OCO4)C2)cc1 (stereo unspecified),inconclusive: 50.6%
16,COc1ccc(CCNC(=O)COC(=O)/C=C/c2cccs2)cc1,inactive: 8.83%
17,CCN(CC)C(=O)CSc1nnc(CCCCCNC(=O)OC(C)(C)C)o1,inconclusive: 17.1%
18,COC(=O)Cn1nc(-c2ccccc2)c2cc(Cl)ccc21,inconclusive: 52.7%
19,CC(C)NCc1cccc([N+](=O)[O-])c1,inconclusive: 53.1%
20,CC(C)NC(=S)N/N=C/c1ccc(C(C)(C)C)cc1,inconclusive: 61.9%
21,O=C1C(NS(=O)(=O)c2ccc(Cl)cc2)=C(N2CCCCC2)C(=O)c2ccccc21,inconclusive: 47.2%
22,CCOC(=O)COc1nc(-c2ccc(C)cc2)cc(-c2ccco2)c1C#N,inactive: -6.28%
23,CC(C)CN(CC(C)C)C(=O)Nc1cccc([N+](=O)[O-])c1,inactive: 0.14%

row,SMILES,inhibition
1,O=C(CSc1nnc(NC(=O)c2ccco2)s1)Nc1ccccc1Br,inconclusive: 33.9%
2,O=C1N(CC(=O)N2CCc3ccccc32)CCN1Cc1ccc(Cl)cc1,inconclusive: 36.2%
3,Cc1ccc(/C=N/NC(=O)c2ccc(Br)o2)s1,inconclusive: 52.7%
4,Cc1ccc(C(C(=O)NC2CCCCC2)N(C(=O)c2csnn2)c2ccccc2F)o1 (stereo unspecified),inconclusive: 36.5%
5,Cc1nc2ccccc2c(-c2ccccc2)c1CC(=O)O,inactive: -8.12%
6,COc1ccc(S(N)(=O)=O)cc1C(N)=O,inconclusive: 40%
7,Nc1c(C(=O)Nc2ccccc2)sc2nc(-c3ccco3)ccc12,inconclusive: 33.3%
8,O=C(O)c1sc2cc(C(F)(F)F)cnc2c1-c1cccs1,inconclusive: 47.9%
9,Cc1ccc(OCCC(=O)N2CCN(c3ccc(O)cc3)CC2)cc1,inconclusive: 40.1%
10,Cc1ccc(NC(=O)C2CCC2)cc1S(=O)(=O)N1CCCCCC1,inactive: 0.74%
11,Cc1ccc(/C=C/C(=O)c2ccccc2)cc1,inconclusive: 43.6%
12,CCC1CCCCN1c1nc(-c2ccncc2)nc2ccccc12 (stereo unspecified),inconclusive: 31.9%
13,CC(=O)C1=C(C)OC2(O)c3ccccc3C(=O)C12O (stereo unspecified),inconclusive: 49.4%
14,CCS(=O)(=O)N1CCCC(C(=O)NC2CCCCC2C)C1 (stereo unspecified),inconclusive: 40.7%
15,CCOc1ccc(N2CC(C(=O)Nc3ccccc3N3CCOCC3)CC2=O)cc1 (stereo unspecified),inconclusive: 60.1%
16,O=C1c2oc3ccccc3c(=O)c2C(c2cccs2)N1CCCN1CCOCC1 (stereo unspecified),inconclusive: 34.1%
17,O=C(Nc1ccccc1C(=O)N1CCNCC1)c1ccco1,inconclusive: 33.7%
18,COc1ccccc1CC(=O)O/N=C(\N)Cc1cccc2ccccc12,inconclusive: 38.8%
19,c1csc(CNc2ccc3c(c2)OCCO3)c1,inconclusive: 42.9%
20,O=C(CCS(=O)(=O)c1ccc(Br)cc1)N1CCN(c2ccc(Cl)cc2)CC1,inactive: 5.94%
21,COc1ccccc1N1CCN(S(=O)(=O)c2ccc(-c3cnc(C4CC4)o3)cc2)CC1,inconclusive: 37.5%
22,COc1ccc(N/C=C2\CCc3ccccc3C2=O)cc1,inconclusive: 34.1%
23,Cc1cccc(C(=O)N/N=C/c2cc(Br)c(Br)o2)c1,inactive: 0.73%

# 5 compounds already listed, ordered by SMILES length, ascending.
row,SMILES,inhibition
6,COc1ccc(S(N)(=O)=O)cc1C(N)=O,inconclusive: 40%
17,O=C(Nc1ccccc1C(=O)N1CCNCC1)c1ccco1,inconclusive: 33.7%
5,CC1=C(C(=O)N2CCOCC2)C(c2cccs2)NC(=O)N1 (stereo unspecified),inconclusive: 41.2%
18,COc1ccccc1CC(=O)O/N=C(\N)Cc1cccc2ccccc12,inconclusive: 38.8%
10,Cc1ccc(NC(=O)C2CCC2)cc1S(=O)(=O)N1CCCCCC1,inactive: 0.74%

# More results:

row,SMILES,inhibition
1,Cc1cccc(N(CC(=O)Nc2ccc(-c3nc4ccc(C)cc4s3)cc2)S(C)(=O)=O)c1,inconclusive: 56.8%
2,Cc1sc2ncn(CCn3cnc4sc(C)c(C)c4c3=O)c(=O)c2c1C,inconclusive: 40.4%
3,CC(OC(=O)Cc1coc2ccc3ccccc3c12)C(=O)Nc1ncc(Cl)cc1Cl (stereo unspecified),inconclusive: 40.5%
4,O=C(CCNS(=O)(=O)c1ccc(Br)s1)NCc1ccc2c(c1)OCO2,inactive: -6.46%
5,CCC(C)NCCCOc1ccc(Cl)cc1C(C)(C)C (stereo unspecified),inconclusive: 35.1%
6,CCOC(=O)CCCn1ncn2c(cc3occc32)c1=O,inactive: 7.22%
7,Cc1ccc2nc(CSc3nnc(-c4ccco4)o3)cc(=O)n2c1,inconclusive: 34.5%
8,Cc1cc(C)n2nc(C(=O)Nc3nccs3)nc2n1,inconclusive: 34.5%
9,CCCCn1nc(C(=O)N2CCc3ccccc32)c2ccccc2c1=O,inconclusive: 57.5%
10,Cc1[nH]c(-c2ccco2)nc1C(=O)O,inconclusive: 51.2%
11,COc1ccc(S(=O)(=O)N(C(=O)c2ccco2)c2cc3sc(=O)oc3c3ccccc23)cc1,inconclusive: 48.9%
12,CCOc1ccccc1NC(=O)CSc1nnc(Cc2cccn2C)n1-c1ccc(F)cc1,inconclusive: 35.9%
13,CCCCC(=O)Nc1cccc(NC(=O)c2ccc(Br)o2)c1,inconclusive: 38.6%
14,O=C(COC(=O)/C=C/c1ccccc1)NCCC1=CCCCC1,inconclusive: 50.4%
15,O=C(COc1ccccc1)NC(Cc1c[nH]c2ccccc12)C(=O)O (stereo unspecified),inactive: 7.79%
16,Cc1cc(C)n(-c2nc3ccccc3nc2Nc2ccc3c(c2)OCO3)n1,inconclusive: 50.1%
17,O=C(Nc1ccc(F)c([N+](=O)[O-])c1)C(=O)c1c(O)[nH]c2ccccc12,inconclusive: 53.7%
18,COc1ccc(NCc2nc3ccccc3n2CCOc2ccc(C)cc2)cc1,inactive: 8.44%
19,O=C1CCc2ccc(NC(=O)C3CC3)cc2N1,inconclusive: 56%
20,Cc1cccc(NC(=O)NC(C)CCc2ccccc2)c1 (stereo unspecified),inconclusive: 39.3%
21,CN(C)C(=O)NCc1ccc(S(N)(=O)=O)cc1,inconclusive: 52.6%
22,C#CCOCCOCCOCCNc1nc(N2CCN(C(=O)[C@H]([C@@H](C)O)n3cc(CCCCN)nn3)CC2)nc(N2CCN(C(=O)[C@H](Cc3ccc(O)cc3)n3cc(CCO)nn3)CC2)n1,inconclusive: 47.9%
